Data as given in PubChem BioAssay AID652243 (Drosophila RNAi Screening Center, 2013).
In all, the deposit lists about 24,000 reagents; shown is an unselected part of those with a known target gene and a result. Over the whole deposit, 246 (1%) were called active. 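Plates not normalised; calls are printed but the firefly/Renilla ratio behind them is not deposited; fold cut for lowering reported inconsistently.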 The raw values are shown without normalisation. The numbers tell different reagents against one gene apart. A plus sign joins genes that one reagent is predicted to hit. No sequences are given here. The record does not give: the amount of reagent.

Purpose: 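Fly regulators of androgen-dependent reporter output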 (primary screen)
Cells: Drosophila S2R+ cells
Knock-down reagent: long dsRNA against Drosophila genes
Timing: 72 h (48 h, then 24 h hormone)
Challenge: synthetic androgen R1881 at 10 nM for 24 h
Detection: 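Firefly light from an androgen-responsive reporter and Renilla control light per well, raw and unnormalised, for each of two replicates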
Reading the numbers: firefly reporter light: higher = more light from androgen-responsive reporter; Renilla control light: higher = more constitutive control signal (cell number, transfection)
Call rule: 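Hit when the log firefly-to-Renilla ratio dropped or increased by a fixed fold versus the mean of GFP or LacZ controls across duplicate plates; lowering cut given as 1.5 and as 3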
Calls: active = hit: reporter lowered or raised; inactive = no hit

Twdlbeta (GeneID 36265) #1 → firefly reporter light, replicate 1 = 2.24e5; firefly reporter light, replicate 2 = 2.55e5; Renilla control light, replicate 1 = 1.55e6; Renilla control light, replicate 2 = 1.68e6; call = inactive
Twdlbeta (GeneID 36265) #2 → firefly reporter light, replicate 1 = 7.49e5; firefly reporter light, replicate 2 = 8.05e5; Renilla control light, replicate 1 = 1.01e6; Renilla control light, replicate 2 = 1.22e6; call = inactive
Jhbp12 (GeneID 42924) → firefly reporter light, replicate 1 = 1.47e5; firefly reporter light, replicate 2 = 1.84e5; Renilla control light, replicate 1 = 2.57e6; Renilla control light, replicate 2 = 2.71e6; call = inactive
CG7017 (GeneID 40213) → firefly reporter light, replicate 1 = 1.79e5; firefly reporter light, replicate 2 = 2.90e5; Renilla control light, replicate 1 = 1.36e6; Renilla control light, replicate 2 = 2.92e6; call = inactive
CG8910 (GeneID 36896) #1 → firefly reporter light, replicate 1 = 64436; firefly reporter light, replicate 2 = 67017; Renilla control light, replicate 1 = 1.21e6; Renilla control light, replicate 2 = 1.21e6; call = inactive
CG8910 (GeneID 36896) #2 → firefly reporter light, replicate 1 = 5.47e5; firefly reporter light, replicate 2 = 5.22e5; Renilla control light, replicate 1 = 1.29e6; Renilla control light, replicate 2 = 1.64e6; call = inactive
lncRNA:CR32730 (GeneID 3772297) → firefly reporter light, replicate 1 = 3.26e5; firefly reporter light, replicate 2 = 8.16e5; Renilla control light, replicate 1 = 1.01e6; Renilla control light, replicate 2 = 2.27e6; call = inactive
CG5174 (GeneID 37117) #1 → firefly reporter light, replicate 1 = 6.73e5; firefly reporter light, replicate 2 = 7.71e5; Renilla control light, replicate 1 = 7.76e5; Renilla control light, replicate 2 = 6.61e5; call = inactive
CG5174 (GeneID 37117) #2 → firefly reporter light, replicate 1 = 3.95e5; firefly reporter light, replicate 2 = 3.62e5; Renilla control light, replicate 1 = 1.88e6; Renilla control light, replicate 2 = 1.56e6; call = inactive
mal (GeneID 33045) #1 → firefly reporter light, replicate 1 = 82602; firefly reporter light, replicate 2 = 69044; Renilla control light, replicate 1 = 5.78e5; Renilla control light, replicate 2 = 6.49e5; call = inactive
mal (GeneID 33045) #2 → firefly reporter light, replicate 1 = 4.55e5; firefly reporter light, replicate 2 = 3.13e5; Renilla control light, replicate 1 = 9.11e5; Renilla control light, replicate 2 = 7.89e5; call = inactive
CG15771 (GeneID 31500) → firefly reporter light, replicate 1 = 1.63e5; firefly reporter light, replicate 2 = 2.39e5; Renilla control light, replicate 1 = 1.39e6; Renilla control light, replicate 2 = 2.09e6; call = inactive
Ctr1B + Poxm → firefly reporter light, replicate 1 = 86089; firefly reporter light, replicate 2 = 62447; Renilla control light, replicate 1 = 2.18e6; Renilla control light, replicate 2 = 1.65e6; call = inactive
E(spl)m5-HLH (GeneID 43158) #1 → firefly reporter light, replicate 1 = 1.94e5; firefly reporter light, replicate 2 = 1.59e5; Renilla control light, replicate 1 = 2.43e6; Renilla control light, replicate 2 = 2.05e6; call = inactive
E(spl)m5-HLH (GeneID 43158) #2 → firefly reporter light, replicate 1 = 3.86e5; firefly reporter light, replicate 2 = 5.27e5; Renilla control light, replicate 1 = 1.47e6; Renilla control light, replicate 2 = 1.92e6; call = inactive

Single entries from the entries so far:
For “firefly reporter light, replicate 1”, lncRNA:CR32730 (GeneID 3772297) is entered as 3.26e5
CG7017 (GeneID 40213), firefly reporter light, replicate 2 → 2.90e5
